Molecules are shown by their SMILES. Where a name gives a salt, the structure may show the parent alone. The list shows a part of the results. Repeats in this data set agree poorly, so a single value says little.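 FDA-approved drugs were each paired with colistin at one-eighth its MIC and screened against a multidrug-resistant, mcr-1-positive clinical E. coli isolate, with OD600 read after 24 h. Drug-free bacteria served as growth control, plain broth as blank. Combinations were active if OD600 dropped below 0.2.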

This assay has as its system Escherichia coli 42 (mcr-1-positive clinical isolate). The assay is described as follows: OD600 after 24 h growth with compound plus colistin (absorbance units (OD600)); higher = more bacterial growth (less inhibition). The note with it: first compound 25 µM; colistin concentration 0.5 ug/mL; incubation time 24 h; 37 °C.
`CC(CCc1ccccc1)NCC(O)c1ccc(O)c(C(N)=O)c1` (configuration not stated) [Labetalol hydrochloride] + CCC(C)CCCC(=O)N[C@@H](CCN)C(=O)N[C@H](C(=O)N[C@@H](CCN)C(=O)N[C@H]1CCNC(=O)[C@H]([C@@H](C)O)NC(=O)[C@H](CCN)NC(=O)[C@H](CCN)NC(=O)[C@H](CC(C)C)NC(=O)[C@@H](CC(C)C)NC(=O)[C@H](CCN)NC1=O)[C@@H](C)O [colistin]: the OD600 is inactive: 1.06. In the case of `CNC(=O)c1cc(Oc2ccc(NC(=O)Nc3ccc(Cl)c(C(F)(F)F)c3)c(F)c2)ccn1` [Regorafenib monohydrate] + CCC(C)CCCC(=O)N[C@@H](CCN)C(=O)N[C@H](C(=O)N[C@@H](CCN)C(=O)N[C@H]1CCNC(=O)[C@H]([C@@H](C)O)NC(=O)[C@H](CCN)NC(=O)[C@H](CCN)NC(=O)[C@H](CC(C)C)NC(=O)[C@@H](CC(C)C)NC(=O)[C@H](CCN)NC1=O)[C@@H](C)O [colistin] it was inactive: 0.967; in that of `CC1(C)[C@H](C(=O)O)N2C(=O)C[C@H]2S1(=O)=O` [Sulbactam] + CCC(C)CCCC(=O)N[C@@H](CCN)C(=O)N[C@H](C(=O)N[C@@H](CCN)C(=O)N[C@H]1CCNC(=O)[C@H]([C@@H](C)O)NC(=O)[C@H](CCN)NC(=O)[C@H](CCN)NC(=O)[C@H](CC(C)C)NC(=O)[C@@H](CC(C)C)NC(=O)[C@H](CCN)NC1=O)[C@@H](C)O [colistin], inactive: 1.08; in that of `CN1CCC[C@@H]1Cc1c[nH]c2ccc(CCS(=O)(=O)c3ccccc3)cc12` [Eletriptan hydrobromide] + CCC(C)CCCC(=O)N[C@@H](CCN)C(=O)N[C@H](C(=O)N[C@@H](CCN)C(=O)N[C@H]1CCNC(=O)[C@H]([C@@H](C)O)NC(=O)[C@H](CCN)NC(=O)[C@H](CCN)NC(=O)[C@H](CC(C)C)NC(=O)[C@@H](CC(C)C)NC(=O)[C@H](CCN)NC1=O)[C@@H](C)O [colistin], inactive: 1.1.

As to `CN1CCCN=C1/C=C/c1cccc(O)c1` [Oxantel Pamoate] + CCC(C)CCCC(=O)N[C@@H](CCN)C(=O)N[C@H](C(=O)N[C@@H](CCN)C(=O)N[C@H]1CCNC(=O)[C@H]([C@@H](C)O)NC(=O)[C@H](CCN)NC(=O)[C@H](CCN)NC(=O)[C@H](CC(C)C)NC(=O)[C@@H](CC(C)C)NC(=O)[C@H](CCN)NC1=O)[C@@H](C)O [colistin], the OD600 is inactive: 0.994. In the case of `COc1ccccc1OCCNCC(O)COc1cccc2[nH]c3ccccc3c12` (configuration not stated) [Carvedilol phosphate hemihydrate] + CCC(C)CCCC(=O)N[C@@H](CCN)C(=O)N[C@H](C(=O)N[C@@H](CCN)C(=O)N[C@H]1CCNC(=O)[C@H]([C@@H](C)O)NC(=O)[C@H](CCN)NC(=O)[C@H](CCN)NC(=O)[C@H](CC(C)C)NC(=O)[C@@H](CC(C)C)NC(=O)[C@H](CCN)NC1=O)[C@@H](C)O [colistin] it was inactive: 0.764; in that of `C[C@@H](O[C@H]1OCCN(Cc2n[nH]c(=O)[nH]2)[C@H]1c1ccc(F)cc1)c1cc(C(F)(F)F)cc(C(F)(F)F)c1` [Aprepitant] + CCC(C)CCCC(=O)N[C@@H](CCN)C(=O)N[C@H](C(=O)N[C@@H](CCN)C(=O)N[C@H]1CCNC(=O)[C@H]([C@@H](C)O)NC(=O)[C@H](CCN)NC(=O)[C@H](CCN)NC(=O)[C@H](CC(C)C)NC(=O)[C@@H](CC(C)C)NC(=O)[C@H](CCN)NC1=O)[C@@H](C)O [colistin], inactive: 1.1; in that of `Clc1ccc(COC(Cn2ccnc2)c2ccc(Cl)cc2Cl)c(Cl)c1` (configuration not stated) [Miconazole] + CCC(C)CCCC(=O)N[C@@H](CCN)C(=O)N[C@H](C(=O)N[C@@H](CCN)C(=O)N[C@H]1CCNC(=O)[C@H]([C@@H](C)O)NC(=O)[C@H](CCN)NC(=O)[C@H](CCN)NC(=O)[C@H](CC(C)C)NC(=O)[C@@H](CC(C)C)NC(=O)[C@H](CCN)NC1=O)[C@@H](C)O [colistin], active: 0.037.

On to `CC(C)(C#N)c1cc(Cn2cncn2)cc(C(C)(C)C#N)c1` [Anastrozole] + CCC(C)CCCC(=O)N[C@@H](CCN)C(=O)N[C@H](C(=O)N[C@@H](CCN)C(=O)N[C@H]1CCNC(=O)[C@H]([C@@H](C)O)NC(=O)[C@H](CCN)NC(=O)[C@H](CCN)NC(=O)[C@H](CC(C)C)NC(=O)[C@@H](CC(C)C)NC(=O)[C@H](CCN)NC1=O)[C@@H](C)O [colistin], for which the OD600 is inactive: 1.18. In the case of `NC(=O)N1c2ccccc2CC(=O)c2ccccc21` [Oxcarbazepine] + CCC(C)CCCC(=O)N[C@@H](CCN)C(=O)N[C@H](C(=O)N[C@@H](CCN)C(=O)N[C@H]1CCNC(=O)[C@H]([C@@H](C)O)NC(=O)[C@H](CCN)NC(=O)[C@H](CCN)NC(=O)[C@H](CC(C)C)NC(=O)[C@@H](CC(C)C)NC(=O)[C@H](CCN)NC1=O)[C@@H](C)O [colistin] it was inactive: 1.05. In the case of `Cc1cc(C)nc(NS(=O)(=O)c2ccc(N)cc2)n1` [Sulfamethazine] + CCC(C)CCCC(=O)N[C@@H](CCN)C(=O)N[C@H](C(=O)N[C@@H](CCN)C(=O)N[C@H]1CCNC(=O)[C@H]([C@@H](C)O)NC(=O)[C@H](CCN)NC(=O)[C@H](CCN)NC(=O)[C@H](CC(C)C)NC(=O)[C@@H](CC(C)C)NC(=O)[C@H](CCN)NC1=O)[C@@H](C)O [colistin] it was inactive: 1; in that of `OC(CCN1CCCCC1)(c1ccccc1)C1CCCCC1` (racemic) [DL-trihexyphenidyl hydrochloride] + CCC(C)CCCC(=O)N[C@@H](CCN)C(=O)N[C@H](C(=O)N[C@@H](CCN)C(=O)N[C@H]1CCNC(=O)[C@H]([C@@H](C)O)NC(=O)[C@H](CCN)NC(=O)[C@H](CCN)NC(=O)[C@H](CC(C)C)NC(=O)[C@@H](CC(C)C)NC(=O)[C@H](CCN)NC1=O)[C@@H](C)O [colistin], inactive: 0.936.

The record behind these values is the supplement of paper PMC11546906.
